# In PMC4338043:
# These are yes or no findings as the source states them, for the method shown. Some entries that bind do so weakly or less than the wild type.
# B1: Neisseria meningitidis inosine-5'-monophosphate dehydrogenase (enzyme, UniProt Q9JZB5 1-487)
# chain: MRIVEKAYTFDDVLLVPAHSTVLPRDVKLQTKLTREITLNLPLLSAAMDTVTEARLAISMAQEGGIGIIHKNMPPEMQARAVSKVKRHESGVVKDPVTVAPTTLIREVLEMRAQRKRKMSGLPVVENGKVVGIVTNRDLRFENRVDLPVSAIMTPRERLVTVPEGTSIDEARELMHTHKVERVLVLNEKDELKGLITVKDILKTTEFPNANKDSEGRLRVGAAVGTGGDTEERVKALVEAGVDVIVVDTAHGHSQGVIDRVRWVKETYPHIQVIGGNIATAKAALDLVAAGADAVKVGIGPGSICTTRIVAGVGVPQLTAIHNVAEALKGTGVPLIADGGIRFSGDIAKALAAGAYSVMLGGMFAGTEEAPGEIELYQGRSYKSYRGMGSLGAMSQGSADRYFQDKTDSTDKYVPEGIEGRVPYKGPIVNIIHQLTGGLRSSMGYLGCANIAEMHEKAEFVEITSAGMSESHVHDVQITKEAPNYHR
# Target: Neisseria meningitidis inosine-5'-monophosphate dehydrogenase (Neisseria meningitidis strain FAM18) (UniProt Q9JZB5)
# Experiment: AUC; both purified
binder,measurement,value
B1,binding,binds
